According to US20110135620A1:
Results are given in words; binding and its absence hold for the method and conditions named. In cells and extracts the contact can be indirect. Some results given as binding are weak or reduced against the parent protein; the word gives no strength.

Amino acid sequences for entries named in this document (tags omitted). Residues count along the entry.
UniProt Q09472, residues 323-423: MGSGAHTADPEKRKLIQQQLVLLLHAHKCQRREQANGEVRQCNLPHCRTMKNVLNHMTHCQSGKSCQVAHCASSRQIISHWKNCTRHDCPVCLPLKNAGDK

How the values were obtained:
[1] = molecular target: GST-HIF-1a (C-TAD domain of HIF-1a fused to the C-terminus of glutathione S-transferase) (Homo sapiens); assay: glutathione column co-purification from E. coli lysates, SDS-PAGE (coomassie)
[2] = molecular target: GST-HIF-1a (C-TAD domain of HIF-1a fused to the C-terminus of glutathione S-transferase) (Homo sapiens); assay: co-expression and co-purification in E. coli
[3] = molecular target: GST-HIF-1a (C-TAD domain of HIF-1a fused to the C-terminus of glutathione S-transferase) (Homo sapiens); assay: coexpression in E. coli, glutathione agarose pull-down, SDS-PAGE

Measured: binding

CH1 domain of p300 (from UniProt Q09472 323-423)
binds: [1] | [2] | [3]
